Results as given in paper PMC10647343.
These are yes or no findings as the source states them, for the method shown. In cells and extracts the contact can be indirect. Some entries that bind do so weakly or less than the wild type.

Amino acid sequences for entries named in this document (tags omitted). A change or cut given only in a name is not applied to a line headed by its entry. Chains listed by the source or under a name are the forms on record and can include a tag or linker.
UniProt P14618: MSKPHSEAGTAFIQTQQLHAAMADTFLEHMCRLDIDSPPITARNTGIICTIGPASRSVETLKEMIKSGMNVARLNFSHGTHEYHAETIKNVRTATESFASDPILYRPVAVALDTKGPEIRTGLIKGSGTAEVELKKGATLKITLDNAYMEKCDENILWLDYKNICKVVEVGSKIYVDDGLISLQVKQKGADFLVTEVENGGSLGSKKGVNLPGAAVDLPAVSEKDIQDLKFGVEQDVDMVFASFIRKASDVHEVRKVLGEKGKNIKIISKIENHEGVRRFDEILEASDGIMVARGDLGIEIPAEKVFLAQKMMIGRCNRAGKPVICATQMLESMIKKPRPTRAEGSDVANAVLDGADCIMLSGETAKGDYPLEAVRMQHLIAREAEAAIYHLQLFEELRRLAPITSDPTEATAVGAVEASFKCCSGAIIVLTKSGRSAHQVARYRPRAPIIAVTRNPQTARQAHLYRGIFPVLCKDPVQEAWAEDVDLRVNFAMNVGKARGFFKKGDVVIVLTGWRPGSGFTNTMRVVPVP
Pyruvate kinase M1 (human (endogenous in HeLa)) (P14618, form named): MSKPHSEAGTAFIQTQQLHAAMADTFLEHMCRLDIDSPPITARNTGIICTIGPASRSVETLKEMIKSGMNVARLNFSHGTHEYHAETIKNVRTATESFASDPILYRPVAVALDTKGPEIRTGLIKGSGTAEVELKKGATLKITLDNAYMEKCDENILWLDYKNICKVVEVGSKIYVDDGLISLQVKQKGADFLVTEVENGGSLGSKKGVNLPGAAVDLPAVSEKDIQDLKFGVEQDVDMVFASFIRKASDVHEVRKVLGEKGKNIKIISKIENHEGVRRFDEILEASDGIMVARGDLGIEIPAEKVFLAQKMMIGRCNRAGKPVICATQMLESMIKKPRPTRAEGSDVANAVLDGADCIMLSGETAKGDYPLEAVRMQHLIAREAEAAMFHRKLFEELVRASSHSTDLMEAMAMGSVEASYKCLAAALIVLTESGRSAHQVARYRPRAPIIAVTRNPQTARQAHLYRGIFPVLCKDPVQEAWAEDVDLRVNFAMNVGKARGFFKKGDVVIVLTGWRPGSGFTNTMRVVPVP
UniProt Q14573: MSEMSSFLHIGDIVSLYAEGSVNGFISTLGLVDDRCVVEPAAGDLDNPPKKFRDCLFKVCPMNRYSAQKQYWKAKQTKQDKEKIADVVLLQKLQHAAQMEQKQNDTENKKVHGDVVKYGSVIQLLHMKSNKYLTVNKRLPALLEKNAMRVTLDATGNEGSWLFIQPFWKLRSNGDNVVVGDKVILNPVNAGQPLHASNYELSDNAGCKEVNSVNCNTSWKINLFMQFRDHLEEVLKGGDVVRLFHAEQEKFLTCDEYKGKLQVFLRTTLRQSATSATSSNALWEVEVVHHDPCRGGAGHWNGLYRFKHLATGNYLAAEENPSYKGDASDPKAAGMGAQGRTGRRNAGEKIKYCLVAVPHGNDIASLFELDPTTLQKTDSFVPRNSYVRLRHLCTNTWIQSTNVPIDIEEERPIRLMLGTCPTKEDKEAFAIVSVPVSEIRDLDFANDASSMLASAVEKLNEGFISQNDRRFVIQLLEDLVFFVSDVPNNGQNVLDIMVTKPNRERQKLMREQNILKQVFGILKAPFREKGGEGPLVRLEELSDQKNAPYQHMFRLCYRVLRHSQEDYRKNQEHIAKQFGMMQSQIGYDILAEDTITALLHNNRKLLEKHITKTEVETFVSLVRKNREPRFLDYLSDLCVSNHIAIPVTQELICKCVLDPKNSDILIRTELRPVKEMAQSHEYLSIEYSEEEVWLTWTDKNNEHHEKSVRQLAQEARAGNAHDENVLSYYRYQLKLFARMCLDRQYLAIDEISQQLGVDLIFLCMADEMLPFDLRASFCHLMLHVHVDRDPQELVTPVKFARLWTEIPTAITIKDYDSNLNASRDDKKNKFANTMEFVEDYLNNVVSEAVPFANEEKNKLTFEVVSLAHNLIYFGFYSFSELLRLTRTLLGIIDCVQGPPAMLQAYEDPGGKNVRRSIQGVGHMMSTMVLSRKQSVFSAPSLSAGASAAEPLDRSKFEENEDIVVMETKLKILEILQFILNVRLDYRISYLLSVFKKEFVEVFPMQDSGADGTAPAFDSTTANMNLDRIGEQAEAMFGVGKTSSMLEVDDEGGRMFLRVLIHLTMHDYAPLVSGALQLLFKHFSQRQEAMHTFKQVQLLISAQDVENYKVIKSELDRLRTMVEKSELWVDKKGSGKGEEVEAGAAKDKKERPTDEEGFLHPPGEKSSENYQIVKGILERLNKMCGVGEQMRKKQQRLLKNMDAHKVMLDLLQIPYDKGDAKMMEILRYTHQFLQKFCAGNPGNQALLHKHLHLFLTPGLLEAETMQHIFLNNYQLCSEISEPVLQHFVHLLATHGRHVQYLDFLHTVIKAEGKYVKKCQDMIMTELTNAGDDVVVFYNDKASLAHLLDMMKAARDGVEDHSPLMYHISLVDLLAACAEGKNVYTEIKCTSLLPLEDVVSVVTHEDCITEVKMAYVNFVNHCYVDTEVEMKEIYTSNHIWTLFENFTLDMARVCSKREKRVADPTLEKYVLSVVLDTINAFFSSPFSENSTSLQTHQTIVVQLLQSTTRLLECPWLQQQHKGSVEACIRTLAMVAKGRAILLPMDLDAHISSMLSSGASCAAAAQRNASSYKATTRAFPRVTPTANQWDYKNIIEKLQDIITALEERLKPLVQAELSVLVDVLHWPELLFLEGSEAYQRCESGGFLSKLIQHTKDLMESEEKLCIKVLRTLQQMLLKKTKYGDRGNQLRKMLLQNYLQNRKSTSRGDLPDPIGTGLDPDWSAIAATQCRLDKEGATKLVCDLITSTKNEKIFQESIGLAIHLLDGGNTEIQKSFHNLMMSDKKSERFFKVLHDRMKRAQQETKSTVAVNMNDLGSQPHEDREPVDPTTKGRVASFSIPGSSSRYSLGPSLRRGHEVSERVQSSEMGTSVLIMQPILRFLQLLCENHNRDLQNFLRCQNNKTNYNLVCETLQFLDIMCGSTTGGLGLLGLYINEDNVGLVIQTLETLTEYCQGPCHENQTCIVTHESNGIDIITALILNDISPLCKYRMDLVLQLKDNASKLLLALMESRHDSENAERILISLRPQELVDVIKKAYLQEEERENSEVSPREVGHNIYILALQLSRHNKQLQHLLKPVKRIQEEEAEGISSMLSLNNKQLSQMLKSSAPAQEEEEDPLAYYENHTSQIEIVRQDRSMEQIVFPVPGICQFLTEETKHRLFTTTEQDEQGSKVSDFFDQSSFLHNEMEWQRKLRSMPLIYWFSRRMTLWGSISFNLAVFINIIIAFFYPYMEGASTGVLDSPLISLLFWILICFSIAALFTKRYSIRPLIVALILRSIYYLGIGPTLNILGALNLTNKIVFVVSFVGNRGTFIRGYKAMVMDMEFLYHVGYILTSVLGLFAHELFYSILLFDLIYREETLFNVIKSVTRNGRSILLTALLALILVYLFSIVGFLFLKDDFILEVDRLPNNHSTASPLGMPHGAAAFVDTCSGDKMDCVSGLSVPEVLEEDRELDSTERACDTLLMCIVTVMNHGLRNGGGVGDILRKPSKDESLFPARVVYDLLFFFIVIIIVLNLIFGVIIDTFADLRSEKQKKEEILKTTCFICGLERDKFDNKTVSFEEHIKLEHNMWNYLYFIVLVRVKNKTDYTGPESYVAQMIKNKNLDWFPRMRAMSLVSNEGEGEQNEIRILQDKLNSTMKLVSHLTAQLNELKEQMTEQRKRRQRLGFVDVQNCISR

Legend:
[1] = target: Pyruvate kinase M2 (human (endogenous in HeLa)) (UniProt P14618); test: co-IP; Dynabeads pre-coated with 0.6 µg anti-PKM2 antibody (Cell Signaling Cat. 4053) or normal rabbit control IgG; lysates of HeLa WT and PKM2 KO cells (CHAPS lysis buffer, 1.0 mg in 1 mL) incubated with Ctrl or D5SD peptide (200 µM), overnight at 4 °C; Western blot for IP3R1, IP3R3, PKM1, PKM2
[2] = target: Pyruvate kinase M2 (human (endogenous in HeLa)) (UniProt P14618); test: co-IP; competition: D5SD peptide (200 µM; Ctrl peptide as control) added to HeLa WT or PKM2 KO lysate for at least 1 h at 4 °C before immunoprecipitation with anti-PKM2 antibody; loss of IP3R from the precipitate read by Western blot; only the binder purified
[3] = target: Pyruvate kinase M1 (human (endogenous in HeLa)) (UniProt P14618); test: as above

binding [1]	binding [2]	binding [3]	Molecule
binds	–	–	Inositol 1,4,5-trisphosphate receptor type 3 (from UniProt Q14573 1-2671)
–	binds	binds	KKRMDLVLELKNNASKLLLAI (peptide, UniProt P11881 2078-2098) [D5SD peptide]
